No constants are given. Whether binding was seen depends on the method and setting. Where a sequence is shown, tags or fusion partners need not be part of it.
What was measured:
Test in all cases: two-hybrid; LexA-Cdc1 bait (pBTM116 or pBTM116BN) with Gal4-Pol3 prey and co-expressed c-myc-tagged Cdc27 (pAA-Cdc27) in S. cerevisiae CTY10-5d; ONPG liquid culture beta-galactosidase assay, mean of triplicates, as percent of wild-type Cdc1
Cdc1-J6 = molecular target: T1, Cdc1-J6 (Schizosaccharomyces pombe, UniProt P87324 1-462, Tyr-GlyValProHisTyr-Gly)
T1 construct: Cdc1, S. pombe, with a pentapeptide inserted after residue 124; source: yeast two-hybrid fusion, in S. cerevisiae CTY10-5d
T1 sequence (looked up): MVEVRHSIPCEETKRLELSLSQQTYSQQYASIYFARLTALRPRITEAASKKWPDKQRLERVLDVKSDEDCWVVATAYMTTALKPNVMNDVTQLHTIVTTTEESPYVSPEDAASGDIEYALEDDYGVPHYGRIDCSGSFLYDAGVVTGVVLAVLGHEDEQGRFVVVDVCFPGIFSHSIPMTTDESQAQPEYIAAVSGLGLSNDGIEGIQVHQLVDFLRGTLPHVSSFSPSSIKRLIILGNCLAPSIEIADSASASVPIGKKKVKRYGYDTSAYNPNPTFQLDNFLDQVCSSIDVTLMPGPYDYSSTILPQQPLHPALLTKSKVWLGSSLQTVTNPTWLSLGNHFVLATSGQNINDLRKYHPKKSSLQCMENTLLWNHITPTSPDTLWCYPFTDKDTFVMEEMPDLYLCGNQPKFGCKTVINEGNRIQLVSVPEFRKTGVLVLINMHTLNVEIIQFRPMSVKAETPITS

Cdc1-J1 = molecular target: T2, Cdc1-J1 (Schizosaccharomyces pombe, UniProt P87324 1-462, Thr-GlyValProLeuThr-Gly)
T2 construct: Cdc1, S. pombe, with a pentapeptide inserted after residue 141; source: yeast two-hybrid fusion, in S. cerevisiae CTY10-5d
T2 sequence (looked up): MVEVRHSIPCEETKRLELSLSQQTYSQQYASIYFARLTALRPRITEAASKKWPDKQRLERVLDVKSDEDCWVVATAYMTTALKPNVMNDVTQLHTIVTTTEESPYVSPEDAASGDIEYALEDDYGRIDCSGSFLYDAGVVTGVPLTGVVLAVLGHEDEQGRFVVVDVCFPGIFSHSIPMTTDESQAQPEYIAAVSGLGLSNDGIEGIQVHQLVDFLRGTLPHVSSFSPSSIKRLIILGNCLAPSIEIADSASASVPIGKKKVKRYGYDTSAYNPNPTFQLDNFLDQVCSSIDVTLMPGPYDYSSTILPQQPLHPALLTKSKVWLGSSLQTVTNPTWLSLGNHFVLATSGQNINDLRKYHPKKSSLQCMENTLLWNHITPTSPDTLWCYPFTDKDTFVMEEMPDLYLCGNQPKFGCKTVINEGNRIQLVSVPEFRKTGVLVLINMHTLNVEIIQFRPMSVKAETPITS

Cdc1-J16 = molecular target: T3, Cdc1-J16 (Schizosaccharomyces pombe, UniProt P87324 1-462, Val-GlyGlyThrProVal-Asp)
T3 construct: Cdc1, S. pombe, with a pentapeptide inserted after residue 160; source: yeast two-hybrid fusion, in S. cerevisiae CTY10-5d
T3 sequence (looked up): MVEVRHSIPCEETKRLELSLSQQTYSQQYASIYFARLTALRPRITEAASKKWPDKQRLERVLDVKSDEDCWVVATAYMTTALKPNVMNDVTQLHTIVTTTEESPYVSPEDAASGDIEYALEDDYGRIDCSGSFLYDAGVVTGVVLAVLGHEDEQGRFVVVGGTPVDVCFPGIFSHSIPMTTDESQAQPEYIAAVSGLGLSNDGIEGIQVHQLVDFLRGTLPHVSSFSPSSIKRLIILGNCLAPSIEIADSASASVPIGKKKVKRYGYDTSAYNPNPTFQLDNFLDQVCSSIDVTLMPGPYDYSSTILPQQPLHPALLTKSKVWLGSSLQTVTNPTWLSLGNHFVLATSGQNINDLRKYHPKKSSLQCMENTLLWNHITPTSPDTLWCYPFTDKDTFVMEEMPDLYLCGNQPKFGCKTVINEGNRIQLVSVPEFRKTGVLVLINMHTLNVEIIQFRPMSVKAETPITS

Cdc1-J7 = molecular target: T4, Cdc1-J7 (Schizosaccharomyces pombe, UniProt P87324 1-462, Met-GlyValProLeuMet-Glu)
T4 construct: Cdc1, S. pombe, with a pentapeptide inserted after residue 393; source: yeast two-hybrid fusion, in S. cerevisiae CTY10-5d
T4 sequence (looked up): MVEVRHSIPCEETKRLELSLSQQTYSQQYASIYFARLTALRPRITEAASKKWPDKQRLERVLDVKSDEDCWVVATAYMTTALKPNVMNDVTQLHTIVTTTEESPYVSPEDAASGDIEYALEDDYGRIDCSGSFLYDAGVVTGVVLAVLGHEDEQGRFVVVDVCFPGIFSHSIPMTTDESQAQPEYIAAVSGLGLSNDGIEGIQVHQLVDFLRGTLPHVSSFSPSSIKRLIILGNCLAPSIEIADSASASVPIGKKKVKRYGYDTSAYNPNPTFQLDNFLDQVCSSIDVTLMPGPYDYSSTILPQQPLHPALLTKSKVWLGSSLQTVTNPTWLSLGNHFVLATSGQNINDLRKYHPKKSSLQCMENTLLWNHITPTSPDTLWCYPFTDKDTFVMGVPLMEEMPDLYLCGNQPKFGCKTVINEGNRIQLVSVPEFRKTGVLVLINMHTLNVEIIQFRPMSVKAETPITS

B1: Pol3 (fission yeast DNA polymerase delta catalytic subunit) (natural protein, Schizosaccharomyces pombe, UniProt P30316 1-1086, looked up)
chain: MTDRSSNEGVVLNKENYPFPRRNGSIHGEITDVKRRRLSERNGYGDKKGSSSKEKTSSFEDELAEYASQLDQDEIKSSKDQQWQRPALPAINPEKDDIYFQQIDSEEFTEGSVPSIRLFGVTDNGNSILVHVVGFLPYFYVKAPVGFRPEMLERFTQDLDATCNGGVIDHCIIEMKENLYGFQGNEKSPFIKIFTTNPRILSRARNVFERGEFNFEELFPVGVGVTTFESNTQYLLRFMIDCDVVGMNWIHLPASKYQFRYQNRVSNCQIEAWINYKDLISLPAEGQWSKMAPLRIMSFDIECAGRKGVFPDPSIDPVIQIASIVTQYGDSTPFVRNVFCVDTCSQIVGTQVYEFQNQAEMLSSWSKFVRDVDPDVLIGYNICNFDIPYLLDRAKSLRIHNFPLLGRIHNFFSVAKETTFSSKAYGTRESKTTSIPGRLQLDMLQVMQRDFKLRSYSLNAVCSQFLGEQKEDVHYSIITDLQNGTADSRRRLAIYCLKDAYLPQRLMDKLMCFVNYTEMARVTGVPFNFLLARGQQIKVISQLFRKALQHDLVVPNIRVNGTDEQYEGATVIEPIKGYYDTPIATLDFSSLYPSIMQAHNLCYTTLLDSNTAELLKLKQDVDYSVTPNGDYFVKPHVRKGLLPIILADLLNARKKAKADLKKETDPFKKAVLDGRQLALKVSANSVYGFTGATNGRLPCLAISSSVTSYGRQMIEKTKDVVEKRYRIENGYSHDAVVIYGDTDSVMVKFGVKTLPEAMKLGEEAANYVSDQFPNPIKLEFEKVYFPYLLISKKRYAGLFWTRTDTYDKMDSKGIETVRRDNCPLVSYVIDTALRKMLIDQDVEGAQLFTKKVISDLLQNKIDMSQLVITKALSKTDYAAKMAHVELAERMRKRDAGSAPAIGDRVAYVIIKGAQGDQFYMRSEDPIYVLENNIPIDAKYYLENQLSKPLLRIFEPILGEKASSLLHGDHTRTISMAAPSVGGIMKFAVKVETCLGCKAPIKKGKTALCENCLNRSAELYQRQVAQVNDLEVRFARLWTQCQRCQGSMHQDVICTSRDCPIFYMRIAEHKKLQQSVDLLKRFDEMSW
notes: DNA polymerase delta catalytic subunit Pol3, S. pombe; prey plasmid named pACT-Pol3 in the results and pGAD2F-Pol3 in the methods; also called Gal4-Pol3; pACT-Pol3; source: yeast two-hybrid fusion, in S. cerevisiae CTY10-5d
binding (Cdc1-J6): no binding (tested: <1% of wild type (Table 1)) | binding (Cdc1-J1): no binding (tested: <1% of wild type (Table 1)) | binding (Cdc1-J16): no binding (tested: <1% of wild type (Table 1)) | binding (Cdc1-J7): no binding (tested: <1% of wild type (Table 1))
